Results are given in words; binding and its absence hold for the method and conditions named. Binding seen in cells or lysates may run through a third protein. Some results given as binding are weak or reduced against the parent protein; the word gives no strength.

Sequences of proteins named here, by UniProt entry; tags and fusion partners are left off.
UniProt Q9Y6M1: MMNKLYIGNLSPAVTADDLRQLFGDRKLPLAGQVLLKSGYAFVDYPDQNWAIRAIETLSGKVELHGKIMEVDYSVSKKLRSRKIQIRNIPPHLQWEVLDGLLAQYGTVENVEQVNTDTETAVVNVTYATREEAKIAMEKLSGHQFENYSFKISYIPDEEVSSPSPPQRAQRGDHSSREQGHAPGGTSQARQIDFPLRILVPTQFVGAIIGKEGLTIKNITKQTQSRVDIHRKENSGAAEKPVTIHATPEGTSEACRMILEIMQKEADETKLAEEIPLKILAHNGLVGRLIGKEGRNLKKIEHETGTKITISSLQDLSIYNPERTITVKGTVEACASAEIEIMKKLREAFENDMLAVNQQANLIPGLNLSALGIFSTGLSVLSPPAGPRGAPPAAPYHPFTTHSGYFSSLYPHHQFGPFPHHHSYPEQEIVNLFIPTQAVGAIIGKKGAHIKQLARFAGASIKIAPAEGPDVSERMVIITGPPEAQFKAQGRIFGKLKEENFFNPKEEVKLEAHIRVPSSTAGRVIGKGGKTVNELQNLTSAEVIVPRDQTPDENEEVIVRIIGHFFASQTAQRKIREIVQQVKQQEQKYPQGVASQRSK
UniProt Q15717: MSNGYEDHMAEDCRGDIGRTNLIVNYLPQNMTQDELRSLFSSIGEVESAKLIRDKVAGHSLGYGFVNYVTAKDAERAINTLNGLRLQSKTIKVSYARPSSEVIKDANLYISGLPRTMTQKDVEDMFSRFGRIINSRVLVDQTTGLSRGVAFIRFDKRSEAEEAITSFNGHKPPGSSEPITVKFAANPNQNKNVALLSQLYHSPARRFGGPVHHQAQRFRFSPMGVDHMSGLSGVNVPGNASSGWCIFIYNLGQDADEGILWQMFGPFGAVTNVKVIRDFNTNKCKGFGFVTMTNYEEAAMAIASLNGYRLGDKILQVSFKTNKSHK

One experiment deals with IGF2BP2 (UniProt Q9Y6M1). Put plainly: co-IP; cells harvested 48 h post-transfection, NP40 lysis buffer with protease inhibitor; indicated primary antibody or control IgG 1 h at 4 °C, protein A/G agarose beads overnight at 4 °C; western blot; both directions.
Another experiment addresses HuR (UniProt Q15717). Described as above.

For HuR (from UniProt Q15717 1-326), in the experiment with IGF2BP2, the binding result is reported as “binds”.

Take IGF2BP2 (from UniProt Q9Y6M1 1-599): in the experiment with HuR, the binding entry is on record as “binds”.

Source of the values: publication PMC9107465.
